Measurements reported in PubChem BioAssay AID602196 (INSERM, 2012)
Here is an unselected part of about 23,000 reagents. Over the whole deposit, 455 (2%) got an active call. 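Active includes both protection and sensitisation; some change values fall well beyond the stated -50 to +50 range.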 Not given: the amount of reagent.

- Assay: 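Genes whose knock-down alters cisplatin killing of lung cancer cells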
- System: human A549 lung cancer cells
- Reagents: siRNA pair against human genes
- Time to read-out: 48 h transfection before cisplatin; time from cisplatin to read-out not stated
- Conditions: cisplatin at a dose killing half of control-siRNA cells; exact dose and duration not given
- Measured: 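Shift in cisplatin death relative to control siRNA, from -50 (all cells die) to +50 (no cells die); siRNAs harmful on their own scored 0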
- Direction: two-siRNA summed score (-2 to +2): higher = both siRNAs protect from cisplatin killing; -2 means both sensitise; mean protection from cisplatin (shift in death) and protection from cisplatin (shift in death), siRNA C and protection from cisplatin (shift in death), siRNA D: higher = protection from cisplatin killing
- Call rule: 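Each siRNA scores 0 if harmful alone by LDH or WST-1, otherwise +1 if it reduces and -1 if it increases cisplatin killing; a gene is active when both siRNAs agree (sum +2 or -2)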
- Calls: active = both siRNAs shift cisplatin killing the same way; inactive = no consistent shift, or siRNA harmful alone

| gene knocked down | two-siRNA summed score (-2 to +2) | mean protection from cisplatin (shift in death) (%) | protection from cisplatin (shift in death), siRNA C (%) | protection from cisplatin (shift in death), siRNA D (%) | activity call |
| --- | --- | --- | --- | --- | --- |
| LOC402120 | 0 | 5.9 | 9.3 | 2.6 | inactive |
| AS3MT (arsenite methyltransferase) | 0 | -9.8 | -10.8 | -8.7 | inactive |
| RNF31 (ring finger protein 31) | -1 | -21.8 | -29.1 | -14.4 | inactive |
| DYNLT5 (dynein light chain Tctex-type family member 5) | -1 | -0.6 | 12.8 | -14.1 | inactive |
| TPRA1 (transmembrane protein adipocyte associated 1) | 0 | 13.3 | -22.2 | 48.8 | inactive |
| TPRKB (TP53RK binding protein) | -1 | -5.6 | -17.1 | 5.9 | inactive |
| ZDHHC12 (zDHHC palmitoyltransferase 12) | 0 | 0.9 | -4.1 | 5.8 | inactive |
| FBXO36 (F-box protein 36) | 0 | 14.2 | 11.6 | 16.8 | inactive |

Targets listed so far whose gene name begins with T or t:
| gene knocked down | two-siRNA summed score (-2 to +2) | mean protection from cisplatin (shift in death) (%) | protection from cisplatin (shift in death), siRNA C (%) | protection from cisplatin (shift in death), siRNA D (%) | activity call |
| --- | --- | --- | --- | --- | --- |
| TPRA1 (transmembrane protein adipocyte associated 1) | 0 | 13.3 | -22.2 | 48.8 | inactive |
| TPRKB (TP53RK binding protein) | -1 | -5.6 | -17.1 | 5.9 | inactive |

Next results follow:
| gene knocked down | two-siRNA summed score (-2 to +2) | mean protection from cisplatin (shift in death) (%) | protection from cisplatin (shift in death), siRNA C (%) | protection from cisplatin (shift in death), siRNA D (%) | activity call |
| --- | --- | --- | --- | --- | --- |
| PLA2G2D (phospholipase A2 group IID) | 0 | -16.1 | -21.2 | -11.1 | inactive |
| RGMA (repulsive guidance molecule BMP co-receptor a) | 0 | -4.5 | -17.8 | 8.8 | inactive |
| IL36R (interleukin 36 receptor) | 0 | 1.7 | -4.8 | 8.1 | inactive |
| PIBF1 (progesterone immunomodulatory binding factor 1) | 0 | 1.8 | -2 | 5.6 | inactive |
| LOC390386 | 2 | 12.1 | 8.6 | 15.6 | active |
| NDUFA13 (NADH:ubiquinone oxidoreductase subunit A13) | 0 | 5.7 | 2.6 | 8.7 | inactive |
| LOC401476 | 1 | 15.9 | 15.8 | 16 | inactive |
| KCNQ2 (potassium voltage-gated channel subfamily Q member 2) | -1 | 0.2 | 16.8 | -16.4 | inactive |
| CLEC3B (C-type lectin domain family 3 member B) | 1 | 9.9 | 2.7 | 17.2 | inactive |
| OGA (O-GlcNAcase) | 0 | 5.7 | -3.4 | 14.8 | inactive |
| FOXD2 (forkhead box D2) | 1 | 20.6 | 35.2 | 6.1 | inactive |
| PRDM16-DT (PRDM16 divergent transcript) | 0 | 12.3 | 18.6 | 6 | inactive |
| CDKL4 (cyclin dependent kinase like 4) | 1 | 6.7 | -5.8 | 19.3 | inactive |
| DLG1 (discs large MAGUK scaffold protein 1) | 0 | 10.5 | 11 | 9.9 | inactive |
| CERT1 (ceramide transporter 1) | 0 | -4.4 | -10.8 | 2 | inactive |
